# The campaign covered roughly 52,000 sequences. About 210 (0.4%) were called active.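 How the source made its calls: active means gene whose silencing raises cell survival under the drug, median off-target-corrected z-score across its silencing RNAs 2 or more; inactive means the rest.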 This is one part of the list.
# Experiment: Resistance to Poly (ADP-Ribose) Polymerase inhibitor: Gene Identification via Genome-wide siRNA Screen
# Conditions: mouse BRCA2 R2336H ES cells, olaparib, CellTiter-Glo viability; active compounds read high
# How it was run: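 Genome-wide siRNA screen (3 siRNAs/gene, 20 nM) in mouse ES cells carrying hypomorphic BRCA2 R2336H; olaparib 500 nM added 48 h post-transfection, CellTiter-Glo viability 72 h later. Normalized to plate-median negative control; MAD z-scores, gene median, seed-adjusted.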
row,Sequence,z-score
1,CCCGGAGCUUGAAUUACUGTT against Usp7,inactive: -1.76
2,GGUGGAAAAGCCUUACAGATT against Sry,inactive: 0.125
3,GGAUACAGUUAAGAGAUAUTT against Xpr1,inactive: 0.84
4,CCACAGAGCUGGUGUAAAGTT against Tlx2,inactive: -0.175
5,GGAUUUCAACUUGUUCUAUTT against Mmp1b,inactive: 0.608
6,CCAUUACGAAUUUUGCUUUTT against Serpina11,inactive: 0.606
7,GCAAUCCUAUUUGAUGACUTT against Ninj2,inactive: -0.119
8,GGUGUGUGAACCAUGUGUGTT against Olfr157,inactive: -1.02
9,GGAAGUCCAUCUCUUUUGCTT against Olfr56,inactive: 0.0693
10,GCACGAUUUAGACACCAAGTT against 2810012L14Rik,inactive: -2.17
11,GGAGGCUAUUACUGUUUAUTT against 3110001A13Rik,inactive: 0.095
12,GGAAAACUACCUCUUUUGATT against Cbll1,inactive: 1.57
13,GGGACCAGAUAGAAAUUAUTT against D10Ertd610e,inactive: 0.644
14,CCAACAUCCUUAAGCGGCUTT against Prss15,inactive: -1.06
15,GCUGGUAAACAUAGGUGGCTT against C1qtnf4,inactive: 0.367
16,GCAAAAGCGGGUCAAAAAATT against 1700108M19Rik,inactive: 1.61
17,GGAGUUCCUGAGACAGUACTT against Mcm5,inactive: -0.0249
18,GGUGCUUCUUCACUCCAUGTT against Vars2l,inactive: -0.704
19,GCUCAUCGCUGAUUCGACATT against A830025F02Rik,inactive: 0.709
20,CCAAAUUUUACUGCACGUGTT against 1500002M01Rik,inactive: -0.367
21,GCAAGAAGGUUAUUCUAUATT against Mjd,inactive: -0.777
22,CCAUAGCACUAAAUCAGAUTT against 4933421G18Rik,inactive: 0.387

row,Sequence,z-score
1,GGCCAUCAGUGUGGAAUGUTT against BC004004,inactive: -2.16
2,GGUAAAAUCACGCAGUAAATT against Ppp1r3a,inactive: -1.03
3,GGAAUAUCCGUAAUAACUATT against Grin2b,inactive: 0.706
4,GGAUCUUGAUCCACAUCUCTT against Padi6,inactive: -0.331
5,GGCAUUUCAACUGGACCCATT against Lamb1-1,inactive: -0.686
6,GGUAGAAGCUGUCUUCAGATT against Mrps30,inactive: -0.429
7,GGAAAAGAUAACUCAGACATT against Hrg,inactive: -0.0231
8,GGAACACACUUUUACCAUUTT against Clstn3,inactive: 0.00803
9,GCCAAUGAUAGAUUUGAACTT against D19Ertd737e,inactive: -0.0973
10,AUUACAAGGUUUGUGGAUATT against 9930109F21,inactive: -0.43
11,CGGUCCAAUCUUCUACCCUTT against Rnaset2,inactive: 0.965
12,GGAAAAGGCCAAAAGCUGUTT against Rnd1,inactive: -0.663
13,CGGAAGAUGUUAAAACUAUTT against BC010552,inactive: 0.853
14,GGAAUCUCCGAAGCAUGAATT against Sorbs1,inactive: -1.58
15,GGAACAAGAGAAUGAUGAATT against Col5a2,inactive: -0.71
16,CGCAGAUCAAUUUUCAUAGTT against Kif2a,inactive: -1.25
17,GGUUCAGUUUGGAAAUGAATT against 1700009P03Rik,inactive: 0.642
18,CCCUAUCCUAAAAGCAGACTT against E430018J23Rik,inactive: -0.324
19,GGGUUUGACAACUUGACCUTT against Als2cr2,inactive: -0.341
20,GGACUUGCCUUGAUCGCUATT against C730026E21Rik,inactive: 0.793
21,GCCUUUGCGCAUAUGCUCUTT against BC022692,inactive: -0.156
22,UGCACUGAGGAAUAAGGACTT against Olfr111,inactive: -0.491

row,Sequence,z-score
1,GGUUCUGGUUUAGAUGCUATT against Hist3h2a,inactive: -0.662
2,GGAUGAAAAUCAAAGAAGUTT against Sfrp1,inactive: 0.433
3,CCAGGAUACGGUGUGGUAUTT against Prss21,inactive: 0.0483
4,GCCCACAGUCAUUAAACUATT against 9530066K23Rik,inactive: -0.906
5,GCACAUCAUUGCUACAGAGTT against Mars,inactive: -2.78
6,GGGUGAGAUGAAAUGCAUCTT against Efemp2,inactive: -1.48
7,GGCAGCUAUUGCUCUGGAATT against 5730596B20Rik,inactive: -0.426
8,GCGAUGAGAUUGUUGCUGUTT against 2900001O04Rik,inactive: -0.0787
9,GGGCUGUCUAAGAAUGCAATT against 4921520L01Rik,inactive: 0.172
10,CGUGUAGUGAAAAAUCUUGTT against 6030405A18,inactive: 0.109
11,GGAUGAUCACAAAGGUAUATT against 4632404H12Rik,inactive: -1.27
12,GCAUACUUUCCACAAUGAUTT against V1rb1,inactive: 0.103
13,GCUAGCAACAUCUUGGGCATT against Cntn2,inactive: -1.08
14,GGUUCGACGAAGAUCAGAGTT against Akap1,inactive: -0.715
15,CCAGUUUGGUAAUCAUGAATT against Cyb561d2,inactive: 0.894
16,GCCAUGUUUUAGACCUCCUTT against F730047E07Rik,inactive: -2.8
17,CCUACUUGAGGUUCAUCGUTT against Zmynd11,inactive: 0.307
18,GCAUGAUUUAGAUCGAGUATT against Uqcrfs1,inactive: -1.17
19,GGCAAUGGCUUGGUCUUUUTT against Mapk6,inactive: 0.0357
20,GGGAAAUCUUCAUUUCUUUTT against Nsd1,inactive: 0.0192
21,GCAUUAACUGUCUUGAUCCTT against Olfr356,inactive: 0.337

# Single values from above.
# Entry of GGUUCUGGUUUAGAUGCUATT against Hist3h2a under z-score: inactive: -0.662
# Entry of GGAUGAAAAUCAAAGAAGUTT against Sfrp1 under z-score: inactive: 0.433

# Source: PubChem BioAssay AID1347423 (Functional Genomics Laboratory (NCATS/FGL), 2020)
